Measured values reported in US20170258948A1 (Bristol-Myers Squibb, published 2017).
No constants are given. Whether binding was seen depends on the method and setting. Some entries that bind do so weakly or less than the wild type.

Sequences of proteins named here, by UniProt entry; tags and fusion partners are left off. Residues count along the entry.
UniProt Q9NZQ7, residues 19-290: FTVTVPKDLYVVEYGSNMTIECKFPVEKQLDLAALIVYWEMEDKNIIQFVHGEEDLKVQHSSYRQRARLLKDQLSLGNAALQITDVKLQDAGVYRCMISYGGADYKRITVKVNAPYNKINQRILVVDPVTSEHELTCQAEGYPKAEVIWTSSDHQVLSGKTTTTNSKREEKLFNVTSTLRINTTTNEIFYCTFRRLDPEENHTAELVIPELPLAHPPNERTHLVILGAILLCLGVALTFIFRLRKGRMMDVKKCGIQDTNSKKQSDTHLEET

Key:
[1] = molecular target: human PD-L1 expressed on cells (hPD-L1-positive L2987 human lung carcinoma cells; L2987 xenograft and human lung tumor tissue sections) (human) (UniProt Q9NZQ7); assay: competition with the 64Cu-NODAGA-E01 tracer on L2987 cells, one concentration of cold E01 (450 nM per paragraph 474, not printed on the sheet), gamma counter
[2] = molecular target: human PD-L1 expressed on cells (hPD-L1-positive L2987 human lung carcinoma cells; L2987 xenograft and human lung tumor tissue sections) (human) (UniProt Q9NZQ7); assay: competition with 0.25 nM 18F-DBCO-A02 tracer, in vitro autoradiography of L2987 xenograft and human lung tumor sections, cold A02 at 0.025, 0.25, 2.5 and 25 nM
[3] = molecular target: human PD-L1 expressed on cells (hPD-L1-positive L2987 human lung carcinoma cells; L2987 xenograft and human lung tumor tissue sections) (human) (UniProt Q9NZQ7); assay: in vitro autoradiography of tissue sections
[4] = molecular target: human PD-L1 expressed on cells (hPD-L1-positive L2987 human lung carcinoma cells; L2987 xenograft and human lung tumor tissue sections) (human) (UniProt Q9NZQ7); assay: in vitro autoradiography, cold A02 at 0.025, 0.25, 2.5 and 25 nM against 0.25 nM ^18F-A02 as competitor
[5] = molecular target: human PD-L1 expressed on cells (hPD-L1-positive L2987 human lung carcinoma cells; L2987 xenograft and human lung tumor tissue sections) (human) (UniProt Q9NZQ7); assay: in vivo PET time-activity curves of tumor regions in mice with bilateral L2987 and HT-29 xenografts, 0 to 120 min after tracer injection

B1: cold (unlabeled) E01 Adnectin (designed binder)
chain: EVVAATPTSLLISWRAQLSPSFYYRITYGETGGNSPVQEFTVPNDVMTATISGLKPGVDYTITVYAVTTHGVYFYSPISINYRT
With B1 the binding [1] was “binds”.

B2: cold (unlabeled) A02 Adnectin (designed binder)
chain: EVVAATPTSLLISWSYDGPIDRYYRITYGETGGNSPVQEFTVPPDQKTATISGLKPGVDYTITVYAVRLEEAHYNREFPISINYRT
With B2 the binding [2] was “binds”, the binding [3] was “binds” and the binding [4] was “binds”.

B3: ^64Cu-A02-NODAGA (designed binder)
chain: GVSDVPRDLEVVAATPTSLLISWSYDGPIDRYYRITYGETGGNSPVQEFTVPPDQKTATISGLKPGVDYTITVYAVRLEEAHYNREFPISINYRTPC
modifications: C-terminal cysteine (of the added PC) linked to maleimide-NODAGA chelating ^64Cu
B3 was tested, and the binding [5] was “binds”.
